Data: patent US11130733B2, “4-OXO-alkylated tetramic acid compound, preparation method and use thereof” (BEIJING JOEKAI BIOTECH. LLC, priority 2017, dated 2021)
Several values for one entry are separate records, joined by “and”; a condition that tells them apart may be missing. Equal entries are not always repeated. At least one structure is not confirmed: it was looked up by name or label, or the drawing left a doubt.

What was measured:
[1] = test system: Salmonella typhimurium TA98; experiment: Mini Ames experiment, strain TA98; assay type: cell-based
Experimental: (§1) Histidine auxotrophic strains of Salmonella typhimurium were cultured in a special medium with quite a low content of histidine. The strains were difficult to divide due to lack of nutrition. If a test compound has mutagenicity, a large number of cells will undergo reverse mutation, synthesizing histidine by themselves and developing into colonies visible to the naked eye. In view of the close relationship between mutagenicity and carcinogenesis of chemicals, this method has been widely used in screening carcinogens. Some chemicals need metabolic activation to induce mutagenicity. Mammalian microsomal enzyme S9 can be added into the test system to eliminate the influence of metabolic activation on generation of mutagenicity.
(§2) […] Mini Ames test with compound 50561

[2] = test system: Salmonella typhimurium TA100; experiment: Mini Ames experiment, strain TA100; assay type: cell-based; conditions: TA100, With Metabolic Activation, control article 0.4 μg per well
Experimental: as §1, §2

Row | SMILES | Individual Revertant Colony Counts [Background Lawn] ([1]; TA98, Without Metabolic Activation, control article 2.0 μg per well) | Individual Revertant Colony Counts [Background Lawn] ([1]; TA98, With Metabolic Activation, control article 0.4 μg per well) | Individual Revertant Colony Counts [Background Lawn] [2]
1 | O=[N+]([O-])c1ccc2c(c1)Cc1ccccc1-2 [Compound 2-NF, reference compound] | 407 [1] and 393 [1] and 463 [1] |  | 
2 | Nc1ccc2cc3ccccc3cc2c1 [Compound 2-AA, reference compound] |  | 318 [1] and 276 [1] and 299 [1] | 319 [1] and 326 [1] and 308 [1]
